Measured values taken from PMC8915576 (Frontiers in Pain Research, 2021).
No constants are given. Whether binding was seen depends on the method and setting. Binding seen in cells or lysates may run through a third protein. Some entries that bind do so weakly or less than the wild type.

Protein sequences, listed by entry. Tags and fused reporters are not part of them.
UniProt P42866, whole entry: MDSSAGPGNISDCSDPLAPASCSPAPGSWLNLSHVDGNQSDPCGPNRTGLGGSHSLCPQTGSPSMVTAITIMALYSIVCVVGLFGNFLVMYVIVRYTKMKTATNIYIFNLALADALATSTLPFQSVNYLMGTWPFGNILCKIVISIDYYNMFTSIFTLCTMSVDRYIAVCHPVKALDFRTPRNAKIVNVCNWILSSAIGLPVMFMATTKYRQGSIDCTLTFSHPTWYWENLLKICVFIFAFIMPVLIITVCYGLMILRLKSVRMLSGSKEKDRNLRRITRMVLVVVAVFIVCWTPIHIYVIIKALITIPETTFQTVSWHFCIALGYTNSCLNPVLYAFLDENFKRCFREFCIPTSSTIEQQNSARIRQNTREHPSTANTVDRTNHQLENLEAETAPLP
UniProt P32121, whole entry: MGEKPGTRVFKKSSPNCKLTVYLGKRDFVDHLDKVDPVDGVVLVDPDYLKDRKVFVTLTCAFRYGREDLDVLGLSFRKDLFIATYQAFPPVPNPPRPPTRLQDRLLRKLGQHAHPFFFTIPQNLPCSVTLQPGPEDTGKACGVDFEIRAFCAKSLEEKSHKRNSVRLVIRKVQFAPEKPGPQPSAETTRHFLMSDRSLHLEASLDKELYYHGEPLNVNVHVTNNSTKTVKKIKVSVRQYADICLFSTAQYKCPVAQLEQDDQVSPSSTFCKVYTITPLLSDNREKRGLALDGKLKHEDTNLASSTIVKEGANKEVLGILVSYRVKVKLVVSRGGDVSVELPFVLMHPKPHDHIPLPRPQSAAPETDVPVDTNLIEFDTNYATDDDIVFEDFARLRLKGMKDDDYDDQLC

Target: mMOR-Venus (mu opioid receptor, Venus-tagged) (mouse (from the label mMOR)) (UniProt P42866)
Assay: FRET or BRET; live HEK293 cells co-transfected with mMOR-Venus (acceptor) and Renilla Luciferase8-tagged β-arrestin-1, β-arrestin-2 or Gαi (donor; Gαi with untagged Gβγ fusion); agonist added at 0 nM-100 μM (DAMGO, NKTR-181, oxycodone, morphine, fentanyl); coelenterazine h 4.5 μM; 30°C; netBRET as percent of the maximum DAMGO response, four-parameter fit

binding: binds
Substance: β-arrestin-2-Renilla Luciferase8 (from UniProt P32121 1-409)
